Drawing on PubChem BioAssay AID1487 (National Center for Advancing Translational Sciences (NCATS), 2009), this text covers AC50 for 55 compounds.

A short description of the experiment: qHTS Assay for Modulators of Lamin A Splicing. Conditions: HeLa LMNA splicing GFP/RFP minigene ratio, 48 h. The gist of the method:
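S3 HeLa cells stably expressing lamin A-EGFP splicing minigene plus DsRed2, 600 cells/well, 48 h compound exposure at 37C. Laser-scanning cytometry; analysed as GFP (500-530 nm)/RFP (575-640 nm) total intensity ratio; 0.5% DMSO vehicle.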
Background: qHTS replaces the single test concentration by a dilution series.

[1] abbreviates: measured here: RFP viability control channel.
[2] abbreviates: measured here: GFP splicing reporter channel.

Some of the results follow. These are further read-outs of the screen, such as a control signal, another cell line or another target. No call is given for them. The list favours compounds with an active or inconclusive main result. Words in brackets tell the shape of the fitted curve; partial curves, single points and poor fits give uncertain potencies.

The AC50 is the midpoint of the concentration-response curve, whichever way the signal moves. For the compound `COCCn1c(SCC(=O)/C=C2\N(C)c3ccccc3C2(C)C)nnc1-c1ccncc1`, the AC50 under setting [1] was 15.8 µM [rising, single point]. As for `Cc1cc(C)c(NC(=O)Cn2c(SCC(=O)NCc3ccccc3)nc3ccccc32)c(C)c1`, the AC50 under setting [1] is 4.47 µM [falling, full curve, poor fit].

Regarding `CCOC(=O)C1CCN(S(=O)(=O)c2cccc(-c3cn4cccnc4n3)c2)CC1`, under setting [1], the AC50 was 35.5 µM [rising, single point]. On the same count and under the same terms, next, `COc1cc2c(cc1OC)CN(C(=O)c1cc(=O)c3ccccc3o1)CC2`: 5.01 µM [rising, single point]; `COC(=O)c1sccc1S(=O)(=O)N(CC(=O)NCc1ccccc1)c1ccccc1`: 0.0112 µM [falling, full curve, poor fit]. For `COc1ccc(C(=O)c2ccc(Br)cc2)cc1`, the concentration at half-maximal activity (AC50) under setting [2] is 14.1 µM [falling, single point] and the AC50 under setting [1] is 25.1 µM [falling, single point]. In the case of `Cc1c(C(=O)N(C)Cc2ccccc2)oc2ccc(S(=O)(=O)N3CCCC3)cc12`, the AC50 by setting is: under setting [2], 11.2 µM [rising, partial curve, poor fit]; under setting [1], 8.91 µM [rising, partial curve].

`COc1ccc(Nc2ncnc3c2cnn3-c2ccc(C)cc2C)cc1`: the AC50 under setting [1] is 5.62 µM [falling, partial curve].

Consider `COc1ccc(/C=C/c2nc(N)nc(-c3ccccc3O)n2)cc1OC`, for which the AC50 under setting [1] is 22.4 µM [rising, partial curve].

Take `O=C(O)CC12CC3CC(C1)CC(n1cncn1)(C3)C2`: the AC50 was 0.0631 µM [rising, partial curve, poor fit] under setting [2] and 0.355 µM [rising, full curve, poor fit] under setting [1]. `O=C(N/N=C/c1cccs1)C1COc2ccccc2O1` (configuration not stated): the AC50 under setting [1] was 35.5 µM [rising, single point]. As to `Cc1sc(NC(=O)c2cccs2)nc1-c1ccccc1`, the AC50 is 11.2 µM [rising, partial curve, poor fit] under setting [2] and 15.8 µM [rising, partial curve] under setting [1]. Regarding `O=C(OCC(=O)N1CCc2ccccc21)c1c2c(nc3ccccc13)CCCC2`, the AC50 under setting [1] is 31.6 µM [rising, single point]. Consider `CCC(O)(CC)C(=O)NN(C(=O)CCl)c1ccccc1`, for which the AC50 under setting [1] is 10 µM [rising, partial curve].

For the compound `CC(C)(C)OC(=O)N1CCC(c2c(C(=O)N3CCc4ccccc4C3)cnn2-c2ccc(Cl)cc2)CC1`, the concentration at half-maximal activity (AC50) under setting [1] is 35.5 µM [rising, single point].

As for `Nc1nc(NCc2ccco2)nc(N2CCCC2)c1[N+](=O)[O-]`, the concentration at half-maximal activity (AC50) under setting [2] was 0.224 µM [falling, full curve, poor fit] and the AC50 under setting [1] was 0.631 µM [falling, full curve, poor fit]. For the compound `c1csc(CNc2nc(-c3ccc4c(c3)OCO4)nc3ccccc23)c1`, the AC50 is, setting by setting: under setting [2], 31.6 µM [falling, single point]; under setting [1], 35.5 µM [falling, single point]. Turning to `COc1cccc(Cn2c(=O)c(C)nc3cnc(Nc4cccc(OC)c4)nc32)c1`, the concentration at half-maximal activity (AC50) under setting [1] was 12.6 µM [falling, partial curve]. On the same count and under the same terms, next, `CCCn1c(C)cc(C(=O)CSc2nc3ccccc3c(=O)n2Cc2ccco2)c1C`: 12.6 µM [rising, partial curve]. `CCOC(=O)c1sc(Nc2ccc(C)cc2C)nc1C`: the AC50 is, setting by setting: under setting [2], 8.91 µM [falling, partial curve]; under setting [1], 7.08 µM [falling, full curve].

As to `CCN1CCN(C(=S)Nc2ccc(Cl)cc2Cl)CC1`, the AC50 runs as follows: under setting [2], 22.4 µM [rising, single point]; under setting [1], 22.4 µM [rising, single point]. Turning to `CC(=O)c1cccc(NC(=O)C(Sc2ncnc3ccccc23)c2ccccc2)c1` (configuration not stated), under setting [2], the AC50 is 35.5 µM [falling, single point]. For `CCCCN(C(=O)c1cccc(S(=O)(=O)N2CCCCC2)c1)C1CCS(=O)(=O)C1` (configuration not stated), the AC50 under setting [1] was 0.355 µM [falling, full curve, poor fit]. Take `CC(c1nccs1)N(C)c1nc2nonc2nc1N(C)C` (configuration not stated): the AC50 runs as follows: under setting [2], 0.447 µM [falling, partial curve, poor fit]; under setting [1], 0.501 µM [falling, full curve, poor fit]. As to `COc1ccccc1-c1cc(C(F)(F)F)nc(S(=O)(=O)CCCC(=O)Nc2cccnc2Cl)n1`, the AC50 under setting [1] was 2.82 µM [rising, partial curve].

For the compound `CN(C/C=C\c1ccccc1)Cc1cccc2ccccc12`, the AC50 by setting is: under setting [2], 3.16 µM [falling, single point]; under setting [1], 3.16 µM [falling, single point].

Consider `Cc1ccccc1C(=O)/C=C1\NC(=O)CS1`, for which the AC50 is 12.6 µM [rising, single point] under setting [2] and 14.1 µM [rising, single point] under setting [1]. In the case of `Cc1cccc(C)c1NC(=O)CCCSc1nc2ccccc2s1`, the AC50 under setting [1] was 25.1 µM [rising, single point]. Regarding `O=C(/C=C/c1ccco1)Nc1ccc(S(=O)(=O)N2CCOCC2)cc1`, the AC50 reads like this: under setting [2], 0.282 µM [falling, partial curve, poor fit]; under setting [1], 15.8 µM [falling, partial curve, poor fit]. Consider `O=C(Nn1c(Cc2cccs2)nc2ccccc2c1=O)c1cccs1`, for which the AC50 under setting [1] was 20 µM [rising, single point]. Consider `O=C(Cc1cccs1)NCCSc1c(-c2ccc(Cl)cc2)[nH]c2ccccc12`, for which the AC50 was 11.2 µM [rising, partial curve, poor fit] under setting [2] and 22.4 µM [rising, partial curve] under setting [1]. With `Cc1cccc(NC(=S)N(C)Cc2cn(C)c3ccccc23)c1`, under setting [1], the AC50 was 17.8 µM [rising, single point]. `Brc1cccc(C2CC(c3ccccc3)n3nnnc3N2)c1` (configuration not stated): the AC50 under setting [2] is 0.794 µM [falling, full curve] and the AC50 under setting [1] was 1 µM [falling, full curve]. For the compound `O=C(Cn1c(=O)sc2ccccc21)Nc1nc2c(s1)CCCC2`, the concentration at half-maximal activity (AC50) under setting [1] was 11.2 µM [rising, single point]. Regarding `COc1ccccc1Cc1nc2ccccc2nc1SCC(=O)NCCc1ccccc1`, the AC50 under setting [2] was 0.398 µM [rising, full curve, poor fit].

In the case of `O=c1n(CCCN2CCN(c3cccc(Cl)c3)CC2)nc2ccccn12`, the AC50 is, setting by setting: under setting [2], 0.0708 µM [rising, full curve, poor fit]; under setting [1], 14.1 µM [rising, single point]. For the compound `O=C(CSc1ccc(Br)c2cccc(Cl)c12)Nc1ccc(S(=O)(=O)Nc2nccs2)cc1`, the AC50 is 14.1 µM [falling, partial curve] under setting [2] and 35.5 µM [falling, partial curve, poor fit] under setting [1]. For the compound `O=C(NNC(=O)C12CC3CC(CC(C3)C1)C2)c1cnccn1`, the half-maximal activity concentration (AC50) under setting [1] is 12.6 µM [rising, partial curve].

Turning to `CCn1c(C)cc(C)c(C#N)c1=O`, under setting [1], the AC50 was 0.316 µM [rising, partial curve, poor fit].

Regarding `O=C(NNC(=O)c1ccc(O)cc1O)c1ccc(Cl)cc1`, under setting [1], the concentration at half-maximal activity (AC50) is 17.8 µM [rising, partial curve, poor fit].

Turning to `CCc1ccc(OCCCC(=O)Nc2nnc(C3CCCO3)s2)cc1` (configuration not stated), the AC50 is, setting by setting: under setting [2], 0.00447 µM [falling, full curve, poor fit]; under setting [1], 39.8 µM [falling, partial curve, poor fit]. With `O=C(O)c1cc(=O)[nH]c(=O)[nH]1`, the AC50 was 0.0891 µM [falling, full curve, poor fit] under setting [2] and 1.26 µM [falling, single point] under setting [1]. On to `O=C(c1cccs1)c1coc2ccc(O)c(CN(CCO)CCO)c12`, for which, under setting [1], the concentration at half-maximal activity (AC50) was 7.08 µM [rising, full curve, poor fit]. Turning to `CCCCCOC(=O)Cn1c(N2CCCCCC2)nc2c1c(=O)[nH]c(=O)n2C`, under setting [1], the AC50 is 25.1 µM [rising, single point]. For `Cc1nn(-c2ccccc2)c(N2CCCC2)c1/C=N/NC(=O)c1ccccc1O`, the AC50 is, setting by setting: under setting [2], 7.94 µM [rising, partial curve, poor fit]; under setting [1], 11.2 µM [rising, partial curve]. Take `O=c1c(-c2ccc(Cl)cc2)nc2cnc(Nc3ccccc3)nc2n1C1CC1`: the AC50 is 11.2 µM [falling, partial curve] under setting [2] and 14.1 µM [falling, partial curve] under setting [1].

Take `CC12CCC(C(=O)NNc3ccccc3)(C(=O)C1=O)C2(C)C` (configuration not stated): the AC50 reads like this: under setting [2], 4.47 µM [rising, full curve]; under setting [1], 2.24 µM [rising, full curve, poor fit]. For `CCC(CC)C(=O)Nc1cc(C(=O)OC)cc(C(=O)OC)c1`, the AC50 under setting [1] was 0.0282 µM [falling, full curve, poor fit].

With `O=C(Nc1ccnc(-c2ccncc2)n1)C1CC1`, the AC50 under setting [2] is 5.62 µM [rising, single point]. Turning to `Cc1ccc(S(=O)(=O)N(C)CC(=O)OCC(=O)NC(c2ccccc2)c2ccccc2)cc1`, the AC50 under setting [1] was 12.6 µM [falling, partial curve, poor fit]. Still for that read-out and setting: next, `CCOC(=O)c1[nH]c2ccc(OC)cc2c1NC(=S)N1CCN(C(=O)OCC)CC1`: 22.4 µM [falling, partial curve, poor fit]; `CC(C)(C)C(=O)Nc1ccccc1C(=O)OCC(=O)c1ccc2c(c1)OCCO2`: 20 µM [rising, single point]. `CCc1ccc(NC(=O)N2CCN(Cc3cc(=O)n4nc(-c5ccccc5OC)sc4n3)CC2)cc1`: the AC50 is 0.316 µM [rising, full curve] under setting [2] and 1.12 µM [rising, full curve] under setting [1]. `O=[N+]([O-])c1cccc(/C=N/N2CCN(c3ccccn3)CC2)c1`: the AC50 under setting [1] was 3.55 µM [falling, partial curve, poor fit].

On to `CCOc1ccccc1N(C(=O)c1ccccc1Cl)C1=NC(C)(C)CS1`, for which, under setting [2], the AC50 is 10 µM [falling, partial curve, poor fit].
